The assay deals with T1, GCM1 (human) (UniProt Q9NP62).
T1 sequence: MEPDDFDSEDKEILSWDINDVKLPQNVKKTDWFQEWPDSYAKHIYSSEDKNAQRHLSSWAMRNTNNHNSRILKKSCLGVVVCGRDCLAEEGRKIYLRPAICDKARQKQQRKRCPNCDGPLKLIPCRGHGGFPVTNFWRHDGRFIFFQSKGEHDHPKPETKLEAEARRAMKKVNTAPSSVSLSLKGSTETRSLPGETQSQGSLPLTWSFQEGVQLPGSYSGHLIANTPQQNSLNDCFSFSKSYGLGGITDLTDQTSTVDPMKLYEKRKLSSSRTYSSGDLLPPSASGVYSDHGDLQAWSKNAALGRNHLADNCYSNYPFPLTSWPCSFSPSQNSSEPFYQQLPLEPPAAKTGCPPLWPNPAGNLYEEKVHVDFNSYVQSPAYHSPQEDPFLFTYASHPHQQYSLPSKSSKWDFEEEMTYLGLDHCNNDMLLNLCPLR
The assay is described as follows: co-IP; Co-IP in EVTs and STs derived from hTSCs; which protein was precipitated is not told in the text shown.

Protein sequences, listed by entry. Tags and fused reporters are not part of them.
UniProt O60479: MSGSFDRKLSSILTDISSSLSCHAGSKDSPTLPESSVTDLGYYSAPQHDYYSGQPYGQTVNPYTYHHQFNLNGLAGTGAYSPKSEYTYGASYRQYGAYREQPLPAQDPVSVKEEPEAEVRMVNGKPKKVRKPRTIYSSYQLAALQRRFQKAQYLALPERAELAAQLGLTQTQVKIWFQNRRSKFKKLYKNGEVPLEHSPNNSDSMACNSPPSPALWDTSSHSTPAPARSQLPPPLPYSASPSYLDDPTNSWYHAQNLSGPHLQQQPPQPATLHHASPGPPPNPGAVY

These are yes or no findings as the source states them, for the method shown. Binding seen in cells or lysates may run through a third protein. Some results given as binding are weak or reduced against the parent protein; the word gives no strength.

As for DLX3 (from UniProt O60479 1-287), the binding result is “binds”.

For the origin of these results see paper PMC10742386.
